{"source": "paper PMC11001985", "binders": {"B1": {"name": "bone morphogenetic protein 9 (BMP9) (ligand, UniProt Q9UK05 320-429)", "chain": "SAGAGSHCQKTSLRVNFEDIGWDSWIIAPKEYEAYECKGGCFFPLADDVTPTKHAIVQTLVHLKFPTKVGKACCVPTKLSPISVLYKDDMGVPTLKYHYEGMSVAECGCR"}}, "key": {"[1]": {"target": "T1, Endoglin (ENG/CD105) K285R mutant, 3×FLAG-tagged, expressed on Hela cells (human) (UniProt P17813)", "T1 sequence": "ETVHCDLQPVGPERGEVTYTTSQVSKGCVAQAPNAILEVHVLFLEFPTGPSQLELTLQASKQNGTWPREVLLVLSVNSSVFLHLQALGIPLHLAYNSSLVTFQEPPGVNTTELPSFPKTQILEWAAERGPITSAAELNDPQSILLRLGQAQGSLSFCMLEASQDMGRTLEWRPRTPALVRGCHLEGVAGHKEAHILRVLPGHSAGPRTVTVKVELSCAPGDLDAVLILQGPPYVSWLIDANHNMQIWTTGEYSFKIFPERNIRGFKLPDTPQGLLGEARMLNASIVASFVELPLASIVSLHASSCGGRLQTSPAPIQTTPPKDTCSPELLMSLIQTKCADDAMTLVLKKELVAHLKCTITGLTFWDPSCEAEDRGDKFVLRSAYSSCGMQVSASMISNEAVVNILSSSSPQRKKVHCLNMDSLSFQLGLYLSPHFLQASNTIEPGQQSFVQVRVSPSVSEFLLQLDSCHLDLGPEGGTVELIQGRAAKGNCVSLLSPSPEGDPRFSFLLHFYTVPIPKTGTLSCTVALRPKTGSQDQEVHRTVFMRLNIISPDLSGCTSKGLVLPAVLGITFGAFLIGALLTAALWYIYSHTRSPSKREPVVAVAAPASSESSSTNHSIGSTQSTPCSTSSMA", "experiment": "binding of soluble ligand to living cells, Western blot of the cell lysate; Hela cells transfected with ENG-3×FLAG (WT or K285R), starved overnight, treated with OPA-S-S-alkyne at various concentrations (10 min, room temperature, quenched with 1 M glycine) or untreated, washed, incubated with 25 ng/ml BMP9 at 4 °C for 2 h, washed, lysed; BMP9 detected by anti-BMP9 blot; only the binder purified"}, "[2]": {"target": "T2, Endoglin (ENG/CD105), wild type, 3×FLAG-tagged, expressed on Hela cells (human) (UniProt P17813)", "T2 sequence": "T1 sequence with R260K", "experiment": "binding of soluble ligand to living cells, Western blot of the cell lysate; Hela cells transfected with ENG-3×FLAG (WT or K285R), starved overnight, treated with OPA-S-S-alkyne at various concentrations (10 min, room temperature, quenched with 1 M glycine) or untreated, washed, incubated with 25 ng/ml BMP9 at 4 °C for 2 h, washed, lysed; BMP9 detected by anti-BMP9 blot; only the binder purified"}}, "note": "Residue numbers refer to the chain shown, from its start. No constants are given. Whether binding was seen depends on the method and setting. Some entries that bind do so weakly or less than the wild type. Where a sequence is shown, tags or fusion partners need not be part of it."}
{"binder": "B1", "values": [{"measurement": "binding", "setting": "[1]", "value": "binds"}, {"measurement": "binding", "setting": "[2]", "value": "binds"}]}
